Results deposited as PubChem BioAssay AID493246 (Drosophila RNAi Screening Center, 2011)

Aim: 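Genome-wide search for dsRNAs that reduce cell number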 (primary screen)
Cells: Drosophila Kc and S2R+ cells
Knock-down reagent: long dsRNA against Drosophila genes
Detection: 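Cell number per well after knock-down, printed as raw plate values; calls were based on per-plate z-scores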
Direction: Kc cell number and S2R+ cell number: higher = more cells remaining
Active means: 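Counted as a hit if cell number falls by a z-score of at least 3 within its plate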
In all, the deposit lists about 21,000 reagents; shown is an unselected part of those that have a named target and a result. In the full data, 429 (2%) were called active. 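Values are raw and not normalised between plates; calls rest on per-plate z-scores that were not deposited.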 A plus sign joins genes that one reagent is predicted to hit. Not given: the amount of reagent, the time to read-out.

target gene	DRSC id	Kc cell number, rep 1	Kc cell number, rep 2	S2R+ cell number, rep 1	S2R+ cell number, rep 2	outcome
Plekhm1 (Pleckstrin homology and RUN domain containing M1)	DRSC04527	1.57e6	1.74e6	1.39e6	4.55e5	inactive
aop (anterior open)	DRSC00801	1.18e6	1.12e6	4.90e5	6.19e5	active
grau (grauzone)	DRSC04691	1.53e6	1.63e6	1.29e6	4.69e5	inactive
Amy-d (Amylase distal)	DRSC05919	1.48e6	1.59e6	1.14e6	1.25e6	inactive
mop (myopic)	DRSC11065	1.29e6	1.32e6	1.16e6	1.21e6	inactive
CheB53b (Chemosensory protein B 53b)	DRSC05613	5.80e5		7.49e5		inactive
Pkg21D (Protein kinase, cGMP-dependent at 21D)	DRSC00772	1.29e6	1.32e6	7.95e5	8.64e5	inactive
Dpp10 (Dipeptidyl peptidase 10)	DRSC00942	1.64e6	1.79e6	1.13e6	1.28e6	inactive
Dpp10 (Dipeptidyl peptidase 10)	DRSC02139	1.41e6	1.33e6	1.11e6	1.22e6	inactive
CG32767	DRSC18386	1.75e6	1.89e6	1.11e6	1.29e6	inactive
mthl2 (methuselah-like 2)	DRSC10287	1.35e6	1.32e6	1.25e6	1.29e6	inactive
CG11099	DRSC06034	1.81e6	1.90e6	1.35e6	1.54e6	inactive
Pnn (Pinin)	DRSC16415	1.45e6	1.55e6	1.21e6	1.32e6	inactive
CG14767	DRSC06500	1.55e6	1.58e6	1.13e6	1.18e6	inactive
CG30416	DRSC04565	1.66e6	1.78e6	1.20e6	1.33e6	inactive
CG5556	DRSC00687	1.75e6	1.85e6	1.15e6	1.27e6	inactive
CG11404	DRSC11656	1.86e6	1.99e6	1.34e6	1.44e6	inactive
CG31784	DRSC01574	1.40e6	1.46e6	9.25e5	1.09e6	inactive
Taf1 (TBP-associated factor 1)	DRSC12607	1.63e6	1.75e6	1.08e6	1.21e6	inactive
LKRSDH (Lysine ketoglutarate reductase/saccharopine dehydrogenase)	DRSC03015	1.26e6	1.44e6	4.70e5	5.28e5	inactive
nw (narrow)	DRSC06749	1.37e6	1.46e6	1.19e6	1.16e6	inactive
nw (narrow)	DRSC06896	1.49e6	1.55e6	1.22e6	1.35e6	inactive
Act79B (Actin 79B)	DRSC11604	1.29e6	1.24e6	1.08e6	1.19e6	inactive
CG3288	DRSC11745	1.35e6	1.47e6	1.30e6	1.36e6	inactive
CG32457	DRSC11596	1.39e6	1.64e6	1.05e6	1.18e6	inactive
CG31522	DRSC12005	1.31e6	1.42e6	1.13e6	1.34e6	inactive
hth (homothorax)	DRSC16967	1.50e6	1.74e6	1.38e6	1.53e6	inactive
IntS1 (Integrator 1)	DRSC04343	1.02e6	1.11e6	8.52e5	9.62e5	inactive
CG3663	DRSC04402	1.43e6	1.51e6	1.19e6	1.33e6	inactive
CG13280	DRSC02253	1.54e6	1.63e6	1.10e6	1.23e6	inactive
insc (inscuteable)	DRSC04695	1.66e6	1.73e6	1.27e6	3.23e5	inactive
Cpr65Ea (Cuticular protein 65Ea)	DRSC11027	1.33e6	1.32e6	1.25e6	1.24e6	inactive
Tcs3 (Threonyl-carbamoyl synthesis 3)	DRSC10461	1.31e6	1.50e6	1.31e6	1.41e6	inactive
unc-5	DRSC05545	1.33e6	1.37e6	1.03e6	1.19e6	inactive
unc-5	DRSC07711	1.59e6	1.58e6	1.22e6	1.45e6	inactive
unc-5	DRSC07712	1.58e6	1.59e6	1.21e6	1.37e6	inactive
GstE12 (Glutathione S transferase E12)	DRSC04047	1.53e6	1.69e6	1.24e6	1.29e6	inactive
Glut1 (Glucose transporter 1)	DRSC07927	1.49e6	1.37e6	9.72e5	1.16e6	inactive
Glut1 (Glucose transporter 1)	DRSC08662	1.39e6	1.38e6	1.17e6	1.13e6	inactive
CG16812	DRSC02519	1.35e6	1.44e6	1.09e6	1.21e6	inactive
CG10353	DRSC19354	1.71e6	1.85e6	1.13e6	1.26e6	inactive
Reepl1 (Receptor accessory protein like 1)	DRSC19418	1.68e6	1.57e6	1.04e6	1.12e6	inactive
Polr3K + Tcs1	DRSC05988	1.71e6	9.17e5	1.02e6	1.24e6	inactive
Sln (Silnoon)	DRSC07133	1.65e6	1.65e6	1.30e6	1.37e6	inactive
CG17260	DRSC00497	1.34e6	1.39e6	1.11e6	1.26e6	inactive
CG17819	DRSC15279	1.38e6	1.55e6	1.01e6	1.06e6	inactive
CG6833	DRSC10721	1.51e6	1.56e6	1.18e6	1.26e6	inactive
CG31365	DRSC15610	1.54e6	1.58e6	1.21e6	1.32e6	inactive
Phm (Peptidylglycine-alpha-hydroxylating monooxygenase)	DRSC04639	1.48e6	1.54e6	1.16e6	1.13e6	inactive
CG6254	DRSC16002	1.66e6	1.74e6	1.27e6	1.40e6	inactive
Nup54 (Nucleoporin 54kD)	DRSC07282	1.24e6	1.33e6	1.11e6	1.15e6	inactive
CG5114	DRSC10482	1.86e6	1.98e6	1.05e6	1.15e6	inactive
CG1440	DRSC17915	1.87e6	1.79e6	1.12e6	1.29e6	inactive
Prtl99C (Protamine-like 99C)	DRSC15049	1.38e6	1.43e6	1.07e6	1.11e6	inactive
jef (jet fuel)	DRSC06198	1.75e6	1.92e6	1.47e6	1.60e6	inactive
CG11019 (retired record)	DRSC02117	1.55e6	1.67e6	1.18e6	3.01e5	inactive
CG6071	DRSC10579	1.45e6	1.51e6	1.17e6	1.34e6	inactive
CG15333	DRSC18016	1.47e6	1.51e6	1.04e6	1.09e6	inactive
CG15333	DRSC18153	1.46e6	1.43e6	1.04e6	1.09e6	inactive
